* marks the point of attachment. Tos = Cc1ccc(S(=O)(=O)*)cc1; ClZ = O=C(OCc1ccccc1Cl)*; Cbz = O=C(OCc1ccccc1)*; Boc = CC(C)(C)OC(=O)*; OcHex = C1CCC(O*)CC1; OBn = c1ccc(CO*)cc1; Bn = c1ccc(C*)cc1; NHNH2 = NN*
Assay: general procedure: solution-phase peptide synthesis; WSC/HOBT or WSC/HONB; active esters (OSu, ONp); azide method

| Substance | step yield (late stage modification step) [%] | step yield (coupling step) [%] |
| --- | --- | --- |
| Boc-GS(Bn)NL-NHNH2 | 79.0 |  |
| Boc-D(OcHex)VGAGT(Bn)P-NH2 |  | 83.0 |
| Boc-Gln-Glu(OcHex)-Leu-His(Tos)-Lys(Cl-Z)-Leu-Gln-Thr(Bzl)-Pro-Gln-Thr(Bzl)-Asn-Thr(Bzl) -Gly-Ser(Bzl)-Gly-Thr(Bzl)-Pro-NH2 |  | 85.0 |
| Boc-K(Cbz)LS(Bn)QE(OcHex)LNK(ClZ)LQT(Bn)PQT(Bn)D(OcHex)VGAGT(Bn)P-NH2 |  | 88.0 |
| Boc-QT(Bn)PR(Tos)T(Bn)NT(Bn)GS(Bn)GT(Bn)P-NH2 |  | 87.1 |
| Boc-Gln-Thr(Bzl)-Tyr(Cl2 -Bzl)-Pro-Arg(Tos)-Thr(Bzl)-Asp(OcHex)-val-Gly-Ala-Gly-Thr(Bzl)-Pro -NH2 |  | 97.7 |
| Boc-K(ClZ)LS(Bn)QE(OcHex)LHK(ClZ)LQT(Bn)PQT(Bn)D(OBn)VGAGT(Bn)P-NH2 |  | 92.0 |
| Boc-Lys(Cl-Z)-Leu-Ser(Bzl)-Gln-Glu(OcHex)-Leu-His(Tos)-Lys(Cl-Z)-Gln-Thr(Bzl)-Tyr(Cl2 -Bzl) -Pro-Arg(Tos)-Thr(Bzl)-Asn-Thr(Bzl)-Gly-Ser(Bzl)-GLy-Thr(Bzl)-Pro-NH2 |  | 90.0 |
| Boc-Lys(Cl-Z)-Leu-Ser(Bzl)-Gln-Glu(OcHex)-Leu-His(Tos)-Lys(Cl-Z)-Leu-Gln-Thr(Bzl)-Pro -Arg(Tos)-Thr(Bzl)-Asn-Thr(Bzl)-Gly-Ser(Bzl)-Gly-Thr(Bzl)-Pro-NH2 |  | 90.0 |
| Boc-K(ClZ)LS(Bn)QE(OcHex)LNK(ClZ)LQT(Bn)PR(Tos)T(Bn)D(OcHex)VGAGT(Bn)P-NH2 |  | 90.0 |
| Boc-His(Tos)-Lys(Cl-Z)-Gln-Thr(Bzl)-Tyr(Cl2 -Bzl)-Pro-Arg(Tos)-Thr(Bzl)-Asp(OcHex)-Val-Gly-Ala -Gly-Thr(Bzl)-Pro-NH2 |  | 91.0 |
| Boc-K(ClZ)LS(Bn)QE(OcHex)LQK(ClZ)LQT(Bn)PR(Tos)T(Bn)NT(Bn)GS(Bn)GT(Bn)P-NH2 |  | 90.6 |
| Boc-NT(Bn)GS(Bn)GT(Bn)P-NH2 |  | 73.1 |
| Boc-GAS(Bn)LS(Bn)T(Bn)E-OBn |  | 76.8 |
| Boc-R(Tos)T(Bn)NT(Bn)GS(Bn)GT(Bn)P-NH2 |  | 70.5 |
| Boc-His(Tos)-Lys(Cl-Z)-Leu-Gln-Thr(Bzl)-Tyr(Cl2 -Bzl)-Pro-Arg(Tos)-Thr(Bzl)-Asn-Thr(Bzl)-Gly-Ser(Bzl)-Gly-Thr(Bzl)-Pro -NH2 |  | 95.1 |
| Boc-Gln-Glu(OcHex)-Leu-His(Tos)-Lys(Cl-Z)-Leu-Gln-Thr(Bzl)-Pro-Arg(Tos)-Thr(Bzl)-Asn -Thr(Bzl)-Gly-Ser(Bzl)-Gly-Thr(Bzl)-Pro-NH2 |  | 78.3 |
| Boc-Lys(Z)-Leu-Ser(Bzl)-Gln-Glu(OcHex)-Leu-His(Tos)-Lys(Cl-Z)-Leu-Gln-Thr(Bzl)-Pro -Arg(Tos)-Thr(Bzl)-Asp(OcHex)-Val-Gly-Ala-Gly-Thr(Bzl)-Pro-NH2 |  | 95.0 |

| Substance | step yield (late stage modification step) [%] | step yield (coupling step) [%] |
| --- | --- | --- |
| Boc-His(Tos)-Lys(Cl-Z)-Leu-Gln-Thr(Bzl)-Pro-Gln-Thr(Bzl)-Asn-Thr(Bzl)-Gly- Ser(Bzl)-Gly -Thr(Bzl)-Pro-NH2 |  | 94.0 |
| Boc-Thr(Bzl)-Tyr(Cl2 -Bzl)-Pro-Arg(Tos)-Thr(Bzl)-Asn-Thr(Bzl)-Gly-Ser(Bzl)-Gly-Thr(Bzl)-Pro-NH2 |  | 78.2 |
| Boc-NK(ClZ)LQT(Bn)PQT(Bn)NT(Bn)GS(Bn)GT(Bn)P-NH2 |  | 98.0 |
| Boc-GAS(Bn)L-NHNH2 | 89.2 |  |
| Boc-S(Bn)QE(OcHex)LGK(ClZ)LQT(Bn)PR(Tos)T(Bn)NT(Bn)GS(Bn)GT(Bn)P-NH2 |  | 99.0 |
| Boc-S(Bn)QE(OcHex)LAK(ClZ)LQT(Bn)PR(Tos)T(Bn)NT(Bn)GS(Bn)GT(Bn)P-NH2 |  | 98.5 |
| Boc-K(ClZ)LQT(Bn)PQT(Bn)NT(Bn)GS(Bn)GT(Bn)P-NH2 |  | 84.0 |
| Boc-Lys(Cl-Z)-Gln-Thr(Bzl)-Tyr(Cl2 -Bzl)-Pro-Arg(Tos)-Thr(Bzl)-Asn-Thr(Bzl)-Gly-Ser(Bzl)-Gly -Thr(Bzl)-Pro-NH2 |  | 97.1 |
| Boc-S(Bn)QE(OcHex)LNK(ClZ)LQT(Bn)PR(Tos)T(Bn)D(OcHex)VGAGT(Bn)P-NH2 |  | 95.0 |
| Boc-GAS(Bn)L-OEt |  | 77.8 |
| Boc-S(Bn)QE(OcHex)LS(Bn)K(ClZ)LQT(Bn)PR(Tos)T(Bn)NT(Bn)GS(Bn)GT(Bn)P-NH2 |  | 99.1 |
| Boc-T(Bn)GS(Bn)GT(Bn)P-NH2 |  | 77.7 |
| Boc-K(ClZ)LS(Bn)QE(OcHex)LLK(ClZ)LQT(Bn)PR(Tos)T(Bn)NT(Bn)GS(Bn)GT(Bn)P-NH2 |  | 88.0 |
| Boc-Lys(Cl-Z)-Leu-Ser(Bzl)-Gln-Glu(OcHex)-Leu-His(Tos)-Lys(Cl-Z)-Leu-Gln-Thr(Bzl)-Pro -Gln-Thr(Bzl)-Asn-Thr(Bzl)-Gly-Ser(Bzl)-Gly-Thr(Bzl)-Pro-NH2 |  | 74.9 |
| Boc-S(Bn)GT(Bn)P-NH2 |  | 75.9 |
| Boc-S(Bn)K(ClZ)LQT(Bn)PQT(Bn)NT(Bn)GS(Bn)GT(Bn)P-NH2 |  | 92.0 |
| Boc-Lys(Cl-Z)-Leu-Ser(Bzl)-Gln-Glu(OcHex)-Leu-His(Tos)-Lys(Cl-Z)-Leu-Gln-Thr(Bzl)-Tyr (Cl2 -Bzl)-Pro-Arg(Tos)-Thr(Bzl)-Asn-Thr(Bzl)-Gly-Ser(Bzl)-Gly-Thr(Bzl)-Pro-NH2 |  | 88.0 |

From patent US5204326 (dated 1993)
